Reference: patent US9382204B2, “Inhibitors targeting the DNA-binding domain of human STAT3 for treatment of metastatic cancers” (Indiana University Research and Technology Corporation, priority 2013, dated 2016)
Some of these results come from one statement about several compounds together. For part of these data: At least one compound was matched to its structure with a doubt left.

Columns and labels:
STAT3 = assay: STAT3-dependent luciferase reporter assay in MDA-MB-231-STAT3 stable cells; assay type: cell-based, human; conditions: MDA-MB-231 cells; read-out: IC50 in suppressing STAT3-dependent luciferase reporter expression
Protocol: FIG. 12. Identification of active inS3-54 analogues. (A) Effects of inS3-54 analogues on STAT3-dependent luciferase expression. MDA-MB-231 cells with stable STAT3-dependent luciferase expression were treated with DMSO control, 20 μM inSTAT3-54 or its analogues (A1-A79), followed by measurement of luciferase activity. (*p<0.05; **p<0.01; ***p<0.001).
MDA-MB-231-STAT3 stable cell line with high level of STAT3-dependent luciferase expression was exposed to candidate compounds at 20 μM in DMSO for 48 hours based on previous studies, and luciferase activity was measured using a luciferase assay kit (Promega, USA), following manufacturer's instructions. The final DMSO concentration in this and following assays was 0.1% (vol/vol).

[1] = test system: A549, H1299, MDA-MB-231 and MDA-MB-468 cells; assay: Cytotoxicity sulphorhodamine (SRB) assay, cancer cells; assay type: cell-based, human; conditions: IC50 in non-cancerous cells divided by that in different cancer cells

O=C1C(=Cc2ccc(Cl)cc2)C=C(c2ccccc2)N1c1ccc(O)cc1 [Compound A18]
IC50 (STAT3): 8.8 to 12.6 µM

CC(=O)Nc1ccc(N2C(=O)C(=Cc3ccc(Cl)cc3)C=C2c2ccccc2)cc1 [Compound A26]
IC50 (STAT3): 8.8 to 12.6 µM

O=C(O)c1ccc(N2C(=O)/C(=C/c3ccc([N+](=O)[O-])cc3)C=C2c2ccccc2)cc1 [inS3-54, 4-[(3E)-3-[(4-nitrophenyl)-methylidene]-2-oxo-5-phenylpyrrol-1-yl]benzoic acid]
in-vitro therapeutic window [1]: 2-5
